This is one part of the list. Shown are side measurements of this screen, not its main read-out; they come without a call. Most of these compounds were active or inconclusive in the main read-out, so they are no random draw. Potencies come from curve fits of mixed quality, noted in brackets.

The experiment in a line: qHTS Assay for Lipid Storage Modulators in Drosophila S3 Cells.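 As to cell number change: cells counted by Cell Tracker Red CMTPX staining in the red channel.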 The following applies: BODIPY lipid droplet fluorescence, 18-24 h; for cell number change: measured here: cell count max response, cells fed with added oleic acid. Put shortly:
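Drosophila S3 cells loaded with oleic acid (400 uM, as added) and compounds at several concentrations; lipid droplets imaged by 488-nm laser-scanning cytometry, 500–530 nm intensity and object ratio to cell channel. Percent activity normalized to 20 uM Triacsin C.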
(In general: Quantitative high-throughput screening tests each substance at several concentrations.)

The mark [1] stands for this setting: measured here: cell number channel AC50, cells fed with added oleic acid.
The mark [2] stands for this setting: measured here: lipid fluorescence (Fed channel) AC50, cells fed with added oleic acid.

The AC50 is the concentration giving half of the maximal activity seen. Low readings indicate activity at low concentration, high ones activity only at high concentration. `O=C(COC(=O)c1ccncc1)c1ccccc1`: the cell number change was -51.6%. The concentration at half-maximal activity (AC50) under setting [1] was 0.731 µM [falling, partial curve].

As for `O=C(Nc1c[nH]c(=O)[nH]c1=O)c1ccccc1Cl`, the cell number change was determined as 11.3%.

In the case of `CC(=O)c1ccc(OCc2cc(C(=O)N(C)Cc3ccccn3)no2)cc1`, the cell number change came out at 16.2%.

In the case of `COc1ccccc1NS(=O)(=O)c1ccc(C(=O)NCCCN2CCCC2=O)cc1`, the cell number change worked out at 7.11%. The AC50 under setting [2] was 0.146 µM [rising, full curve, poor fit].

In the case of `CCC(=O)Nc1nc(C)nc(C)c1C(C)=O`, the cell number change is -19.8%. In addition, under setting [1], the half-maximal activity concentration (AC50) was 0.0731 µM [falling, full curve, poor fit].

For `O=C(CC1S/C(=N\S(=O)(=O)c2ccccc2)N(c2ccccc2)C1=O)Nc1ccc(F)cc1` (stereo not drawn), the cell number change was 36.2%. Besides, under setting [1], the concentration at half-maximal activity (AC50) is 29.1 µM [rising, single point].

Regarding `C=CCn1c(C(C)NC(=O)c2ccccc2C)n[nH]c1=S` (stereo not drawn), the cell number change stood at 22.4%. For the same molecule, the concentration at half-maximal activity (AC50) under setting [2] was 1.3 µM [rising, single point].

As for `Cc1ccc(C)c(NC(=O)CN(C)C(=O)c2ccccc2OCc2ccccc2Cl)c1`, the cell number change is -0.556%. Besides, under setting [2], the AC50 is 1.84 µM [rising, partial curve, poor fit].

In the case of `O=C(NCc1ccccc1)C1=C[C@H](c2ccc3c(c2)OCO3)C[C@H](OCCCCO)O1`, the cell number change was determined as 3.18%. Further, the concentration at half-maximal activity (AC50) under setting [2] is 0.92 µM [rising, full curve, poor fit].

In the case of `CN(CCNC(=O)C1(O)c2ccccc2NC(=O)N1c1ccccc1)Cc1ccccc1` (stereo not drawn), the cell number change is -22.7%. Besides, under setting [1], the concentration at half-maximal activity (AC50) is 0.651 µM [falling, full curve, poor fit]. The half-maximal activity concentration (AC50) under setting [2] is 3.66 µM [falling, full curve].

As to `C/C(=N\NS(=O)(=O)c1ccc(Cl)c([N+](=O)[O-])c1)c1cc2ccccc2o1`, the cell number change amounted to 16.6%.

In the case of `O=C(C1=C[C@@H](c2ccc(C(F)(F)F)cc2)C[C@@H](OCCCCO)O1)N1CCN(Cc2ccc3c(c2)OCO3)CC1`, the cell number change is -12.7%. In addition, the AC50 under setting [2] was 14.6 µM [falling, partial curve].

Regarding `C=CCn1c(C)nnc1SCC(=O)Nc1cc(S(=O)(=O)N2CCCC2)ccc1Cl`, the cell number change was -14.8%. Also, under setting [2], the half-maximal activity concentration (AC50) was 6.51 µM [falling, single point].

Turning to `N#Cc1c(/N=C/c2ccc(-c3ccc(C(=O)O)c(Cl)c3)o2)sc2c1CCCC2`, the cell number change is -50.1%. In addition, under setting [1], the AC50 was 0.82 µM [falling, full curve]. Moreover, under setting [2], the concentration at half-maximal activity (AC50) is 0.731 µM [falling, single point].

For the molecule `CC(C)C1Oc2ccccc2N(CC(=O)N2CCOCC2)C1=O` (stereo not drawn), the cell number change was -11.5%.

Consider `O=C1CCc2cc(S(=O)(=O)Nc3ccccc3)ccc2N1`, for which the cell number change was -13.1%. The half-maximal activity concentration (AC50) under setting [2] is 0.00461 µM [rising, full curve, poor fit].

As to `CCOC(=O)c1ccc(N=c2sc(C(=O)OC)cc(=O)n2Cc2ccc3c(c2)OCO3)cc1`, the cell number change stood at 65.9%. In addition, the AC50 under setting [1] is 1.03 µM [rising, full curve, poor fit]. The AC50 under setting [2] was 0.651 µM [rising, full curve, poor fit].

`CC(C)C(=O)NC(=S)Nc1ccc(S(=O)(=O)NC2CCCCC2)cc1`: the cell number change was -23.4%. Besides, the concentration at half-maximal activity (AC50) under setting [2] was 1.64 µM [rising, partial curve, poor fit].

On to `COc1ccc(N2CCN(C(=O)c3cccc(S(=O)(=O)N4CCOCC4)c3)CC2)cc1`, for which the cell number change was -7.9%. Under setting [2], the AC50 was 0.13 µM [falling, full curve, poor fit].

Take `CC1CCN(CC(=O)Nc2ccc(S(=O)(=O)N3CCCCC3)cc2)CC1`: the cell number change was -3.17%.

For `CCOC(=O)[C@H]1[C@H]2COc3ccc(C)cc3[C@@H]2N2C(=O)CN(Cc3ccco3)C(=O)[C@@]12C`, the cell number change is -33.8%. Under setting [1], the concentration at half-maximal activity (AC50) was 29.1 µM [falling, single point]. In addition, under setting [2], the half-maximal activity concentration (AC50) was 29.1 µM [rising, single point].

As to `CCCn1c(C)cc(C(=O)COC(=O)CN=C2NS(=O)(=O)c3ccccc32)c1C`, the half-maximal activity concentration (AC50) under setting [2] is 0.146 µM [falling, full curve, poor fit].

For `O=C(Nc1nc2c(F)cc(F)cc2s1)c1ccccn1`, the cell number change was -7.08%. Besides, the concentration at half-maximal activity (AC50) under setting [2] was 6.51 µM [rising, single point].

Regarding `COc1ccc(NC(=O)CN2CCN(CC#N)CC2)cc1`, the cell number change was -11.1%. Under setting [2], the AC50 was 6.51 µM [rising, single point].

Consider `Cc1ccc2nc3c(c(C(=O)OC4CCOC4=O)c2c1)CCCC3` (stereo not drawn), for which the cell number change was 95.7%. Moreover, under setting [1], the half-maximal activity concentration (AC50) is 20.6 µM [rising, partial curve]. For the same molecule, the concentration at half-maximal activity (AC50) under setting [2] is 29.1 µM [rising, single point].

For the molecule `COC(=O)[C@@]12CCCCN1[C@H](c1ccc(-c3ccccc3)cc1)[C@H]1C(=O)N(C)C(=O)[C@H]12`, the cell number change is -37.1%. The concentration at half-maximal activity (AC50) under setting [1] is 16.4 µM [falling, single point]. Under setting [2], the AC50 was 29.1 µM [falling, single point].

As to `N#Cc1c(-c2ccccc2)nc(SCC(=O)Nc2ccccc2)[nH]c1=O`, the cell number change stood at 13.1%. Also, the half-maximal activity concentration (AC50) under setting [2] was 23.1 µM [rising, single point].

In the case of `O=C(O)CSC1=NC(=Nc2ccc(Cl)cc2)C2(CCCCC2)N1c1cccc(C(=O)O)c1`, the cell number change was -55.2%. The concentration at half-maximal activity (AC50) under setting [1] was 29.1 µM [falling, single point]. Further, the AC50 under setting [2] is 20.6 µM [falling, single point].

With `CC(NC(=O)c1ccc2c(=O)n3c(nc2c1)CCC3)c1ccc(S(N)(=O)=O)cc1` (stereo not drawn), the cell number change was -30.3%. For the same molecule, under setting [1], the AC50 was 0.103 µM [falling, full curve, poor fit].

Consider `CCOc1ccc(C(=O)NNC2CC(=O)N(Cc3ccc(Cl)cc3)C2=O)cc1OC` (stereo not drawn), for which the cell number change turned out to be 5.08%. The half-maximal activity concentration (AC50) under setting [2] is 4.11 µM [rising, single point].

On to `O=C(O)CCCCCNC(=O)C(=O)C1C(=O)Nc2ccccc21` (stereo not drawn), for which the cell number change amounted to 7.18%. Also, the half-maximal activity concentration (AC50) under setting [2] was 5.17 µM [falling, single point].

In the case of `CC(=O)Nc1ccc(NC(=O)C/C(C)=N/NC(=O)c2cccc3ccccc23)cc1`, the cell number change was 3.48%.

Take `COc1ccc(CCn2c(-c3cc([N+](=O)[O-])cc([N+](=O)[O-])c3)nc3nc4ccccc4nc32)cc1`: the cell number change came out at 18.2%.

As for `Cc1c(NS(=O)(=O)c2cc(C(=O)OCC(=O)N3CCC(C)CC3)ccc2Cl)c(=O)n(-c2ccccc2)n1C`, the cell number change turned out to be 22.6%. The AC50 under setting [1] is 0.291 µM [rising, full curve, poor fit].

`COc1ccc(C2=NNC(c3cccnc3)=Nc3ccc(OC)cc32)cc1`: the AC50 under setting [2] was 0.58 µM [falling, single point].

As to `CCOC(=O)C1CCN(Cc2ccc(O)c3ncccc23)CC1`, the cell number change was -52%. Besides, the AC50 under setting [1] was 16.4 µM [falling, partial curve]. The AC50 under setting [2] is 16.4 µM [falling, partial curve].

For the molecule `Cc1cccc(NC(=O)c2nc[nH]c2C(=O)NCCCCCNC(=O)OC(C)(C)C)c1`, the cell number change is -37.4%. Also, the half-maximal activity concentration (AC50) under setting [1] is 25.9 µM [falling, single point]. Also, the concentration at half-maximal activity (AC50) under setting [2] was 29.1 µM [falling, single point].

With `Cc1ccc(CNC(=O)C2CCN(S(=O)(=O)c3ccc(Br)s3)CC2)cc1`, the cell number change is 33.3%. Moreover, the AC50 under setting [1] was 29.1 µM [rising, single point].

Take `COc1ccc(S(=O)(=O)Nc2c(C)nc3nc[nH]n3c2=O)cc1`: the cell number change is -18.6%. Besides, the AC50 under setting [1] was 6.51 µM [falling, single point]. The AC50 under setting [2] was 6.51 µM [falling, single point].

Regarding `CCC(c1nnnn1CC1CCCO1)N(CCCO)Cc1cc2cccc(C)c2[nH]c1=O` (stereo not drawn), the cell number change was 3.87%.

As to `Cc1ccc(C)c2c1sc(=NC(=O)CN1C(=O)CCC1=O)n2C`, the cell number change came out at 7.74%. For the same molecule, the AC50 under setting [2] was 6.51 µM [rising, single point].

On to `CN(C)c1ccc(C(=O)Nc2cccc(S(=O)(=O)NC3=NCCCCC3)c2)cc1`, for which the cell number change turned out to be 24.8%.

With `Cc1ccnc(NC(=O)c2ccc(C(=O)c3ccccc3)cc2)c1`, the cell number change was -54.9%. In addition, the concentration at half-maximal activity (AC50) under setting [1] was 23.1 µM [falling, partial curve, poor fit]. Besides, under setting [2], the half-maximal activity concentration (AC50) is 23.1 µM [falling, partial curve].

Turning to `O=C(O)C1C2C=CC(O2)C1C(=O)NCCCn1ccnc1` (stereo not drawn), the cell number change was -9.49%. For the same molecule, the concentration at half-maximal activity (AC50) under setting [2] is 0.00461 µM [falling, full curve, poor fit].

As for `COCc1cc(=O)[nH]c(-c2ccccc2)n1`, the cell number change was -32.8%. The concentration at half-maximal activity (AC50) under setting [1] was 0.231 µM [falling, full curve]. The AC50 under setting [2] was 3.66 µM [falling, partial curve, poor fit].

Consider `CC(=O)Nc1c(O)nc(SCc2ccc(Cl)cc2)[nH]c1=O`, for which the cell number change amounted to 24.7%. The AC50 under setting [2] was 0.231 µM [rising, full curve].

In the case of `CN(C)c1nc(NC(C)(C)C)nc(NC(C)(C)C)n1`, the cell number change is -17.3%. Also, the AC50 under setting [2] was 6.51 µM [rising, single point].

With `O=C(CCCOc1ccccc1)Nc1cccc(S(=O)(=O)N2CCCCCC2)c1`, under setting [2], the AC50 is 1.03 µM [falling, full curve].

With `COc1ccc(-c2[nH]c3ccccc3c2SCCN)cc1`, the cell number change was found to be 17.1%.

With `C=CCN1C(=O)C(Cc2ccc(F)cc2)S/C1=N/N=C/c1cccs1` (stereo not drawn), the cell number change was 21.4%. Further, the AC50 under setting [1] is 1.84 µM [rising, full curve, poor fit]. The half-maximal activity concentration (AC50) under setting [2] is 2.31 µM [rising, single point].

In the case of `CC(CCc1ccccc1)NC(=O)CSc1ccccc1` (stereo not drawn), the cell number change was -6.51%. Besides, the concentration at half-maximal activity (AC50) under setting [2] is 3.26 µM [rising, single point].

`Cc1cnc(C(=O)OCC(=O)Nc2cc(-c3cc(C)c(C)cc3C)nn2-c2ccccc2)cn1`: the cell number change was 38.2%. The AC50 under setting [1] is 9.2 µM [rising, partial curve]. Moreover, the AC50 under setting [2] was 3.66 µM [rising, single point].

For `Cn1nccc1C(=O)N1CCN(C23CC4CC(CC(C4)C2)C3)CC1`, the cell number change was determined as 9.68%. Besides, under setting [1], the AC50 is 6.51 µM [rising, single point]. For the same molecule, under setting [2], the half-maximal activity concentration (AC50) was 0.092 µM [rising, full curve, poor fit].

As to `O=C(CN=C1NC(=O)C(c2ccccc2)(c2ccccc2)N1)NCc1ccc(F)cc1`, the cell number change is -3.99%. Also, the AC50 under setting [2] is 0.00411 µM [falling, full curve, poor fit].

In the case of `CC(=O)c1c(C)[nH]c(C(=O)OCC(=O)NCc2ccc(Cl)cc2)c1C`, the cell number change was found to be 37.4%. In addition, the AC50 under setting [1] was 0.146 µM [rising, full curve, poor fit]. Besides, the concentration at half-maximal activity (AC50) under setting [2] was 0.164 µM [rising, full curve, poor fit].
